{
  "sequences": {"note": "Protein sequences, listed by entry. Tags and fused reporters are not part of them. Lines headed by an entry give the natural chain unless they say otherwise; changes in a name come on top.", "UniProt P53350, whole entry": "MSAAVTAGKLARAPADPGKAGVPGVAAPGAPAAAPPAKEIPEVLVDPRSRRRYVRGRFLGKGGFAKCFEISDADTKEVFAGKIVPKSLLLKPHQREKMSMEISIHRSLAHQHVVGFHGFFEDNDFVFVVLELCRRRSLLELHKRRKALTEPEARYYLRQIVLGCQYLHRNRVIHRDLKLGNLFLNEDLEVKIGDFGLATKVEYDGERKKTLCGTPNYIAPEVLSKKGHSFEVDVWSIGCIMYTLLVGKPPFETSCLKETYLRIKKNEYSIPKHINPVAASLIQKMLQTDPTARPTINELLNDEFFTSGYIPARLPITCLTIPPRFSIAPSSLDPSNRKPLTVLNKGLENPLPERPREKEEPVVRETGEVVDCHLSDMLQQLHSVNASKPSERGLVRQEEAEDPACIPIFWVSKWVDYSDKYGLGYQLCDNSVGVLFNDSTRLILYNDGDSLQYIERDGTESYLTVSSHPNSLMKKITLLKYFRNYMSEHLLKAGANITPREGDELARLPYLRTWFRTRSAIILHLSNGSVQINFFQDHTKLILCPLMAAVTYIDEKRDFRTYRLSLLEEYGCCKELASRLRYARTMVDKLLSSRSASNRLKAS", "UniProt Q13131": "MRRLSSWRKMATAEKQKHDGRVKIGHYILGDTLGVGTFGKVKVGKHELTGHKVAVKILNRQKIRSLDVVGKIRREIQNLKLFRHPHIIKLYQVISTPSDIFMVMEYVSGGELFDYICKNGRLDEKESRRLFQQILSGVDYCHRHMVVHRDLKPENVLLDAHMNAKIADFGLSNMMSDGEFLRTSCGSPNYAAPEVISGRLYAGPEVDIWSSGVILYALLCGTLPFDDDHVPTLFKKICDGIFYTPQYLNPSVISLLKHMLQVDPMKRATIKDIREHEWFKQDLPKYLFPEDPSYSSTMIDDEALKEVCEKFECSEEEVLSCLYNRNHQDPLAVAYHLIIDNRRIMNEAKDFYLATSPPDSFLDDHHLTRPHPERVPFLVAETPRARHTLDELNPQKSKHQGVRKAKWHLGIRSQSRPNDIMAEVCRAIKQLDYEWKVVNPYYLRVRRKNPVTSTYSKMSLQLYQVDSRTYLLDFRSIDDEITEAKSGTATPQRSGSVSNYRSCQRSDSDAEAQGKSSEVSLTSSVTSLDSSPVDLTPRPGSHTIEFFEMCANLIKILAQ"},
  "source": "the supplement of paper PMC12823440",
  "about": "“Inhibitors supercharge kinase turnover through native proteolytic circuits” (Nature, 2025)",
  "note": "Counter-ions that a name gives are not always drawn. The list shows a part of the results. Hit calls seldom repeat between salt and free forms of one compound.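 In K562 cells expressing nanoluciferase-fused kinases, luminescence was recorded at 4 h intervals between 2 and 18 h, normalized as percent of control with DMSO at 100% and a positive control at 0%. A significant (2 sigma) signal drop marks a time point as decreased. The authors' rule for a hit is not shown and takes in more than the number of time points.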",
  "data": [
    {"molecular_target": "PLK1 (UniProt P53350)", "test": "number of time points (of 5) at which kinase-Nluc abundance scored as decreased, DMSO-normalised (count); higher = more persistent destabilization", "settings": "K562; 2-18 h", "values": [
      {"smiles": "C[C@H](Nc1ncnc2[nH]cnc12)c1nc2ccc(F)cc2c(=O)n1-c1ccccc1", "note": "[Acalisib] (10 µM)", "number of time points": 0},
      {"smiles": "O=C1c2ccccc2C(=O)c2c1cccc2-c1cnn(C2CCNCC2)c1", "note": "[PDK4-IN-1 (hydrochloride)] (10 µM)", "number of time points": 0},
      {"smiles": "Cc1ccccc1-n1c(Cn2ncc3c(N)ncnc32)nc2cccc(C)c2c1=O", "note": "(10 µM)", "number of time points": 0},
      {"smiles": "Nc1ncnc2c1ncn2[C@@H]1O[C@@H]2COP(O)(=S)O[C@H]2[C@H]1O", "note": "(some centres undefined) [Sp-cAMPS (sodium salt)] (10 µM)", "number of time points": 0},
      {"smiles": "CN(C)C(=O)c1ccc(Cn2c(C(=O)O)cc3c(Br)cc(Sc4ccc(Cl)c(Cl)c4)cc32)cc1", "note": "[Rheb inhibitor NR1] (10 µM)", "number of time points": 0},
      {"smiles": "C/C=C(/C)C(=O)O[C@H]1[C@@H]2[C@H](C)C(=O)O[C@@H]2C[C@@H](C)[C@@H]2C=CC(=O)[C@]21C", "note": "[Brevilin A] (2.5 µM)", "number of time points": 0}
    ]},
    {"molecular_target": "PRKAA1 (UniProt Q13131)", "test": "number of time points (of 5) at which kinase-Nluc abundance scored as decreased, DMSO-normalised (count); higher = more persistent destabilization", "settings": "K562; 2-18 h", "values": [
      {"smiles": "C[C@H]1CC[C@]2(NC1)O[C@H]1C[C@H]3[C@@H]4CC[C@H]5C[C@@H](O[C@@H]6O[C@H](CO)[C@H](O[C@@H]7O[C@H](CO)[C@@H](O)[C@H](O[C@@H]8OC[C@@H](O)[C@H](O)[C@H]8O)[C@H]7O[C@@H]7O[C@H](CO)[C@@H](O)[C@H](O)[C@H]7O)[C@H](O)[C@H]6O)CC[C@]5(C)[C@H]4CC[C@]3(C)[C@H]1[C@@H]2C", "note": "[Tomatine] (2.5 µM)", "number of time points": 0},
      {"smiles": "CCCCNc1nc(N)c2[nH]c(=O)n(Cc3ccc(C)nc3)c2n1", "note": "(10 µM)", "number of time points": 0},
      {"smiles": "C[C@H](CCC(=O)O)C[C@H](C)C[C@H](C)C(=O)/C=C(\\O)[C@H](C)C[C@H](C)C/C=C/[C@@H](C)[C@@H](O)[C@@H](C)[C@@H](O)C[C@@H]1CC[C@@](C)([C@H]2CC[C@@](C)([C@@H](C)O)O2)O1", "note": "[Ionomycin (calcium)] (2.5 µM)", "number of time points": 5},
      {"smiles": "CCOC(=O)c1c(/C(C#N)=C\\N)c2ccc(Cl)c(Cl)c2n1C", "note": "(10 µM)", "number of time points": 0},
      {"smiles": "CC(=O)OC(C)(C)/C=C/C(=O)[C@](C)(O)[C@H]1[C@H](O)C[C@@]2(C)[C@@H]3CC=C4[C@@H](C=C(O)C(=O)C4(C)C)[C@]3(C)C(=O)C[C@]12C", "note": "[Cucurbitacin E] (2.5 µM)", "number of time points": 1},
      {"smiles": "O=C1C=CC[C@@H]2[C@H]3CCCN4CCC[C@@H](CN12)[C@@H]34", "note": "[Sophocarpine (monohydrate)] (2.5 µM)", "number of time points": 0},
      {"smiles": "C=CC(=O)Nc1ccc2[nH]c(=O)n(C3CCN(Cc4ccc(-c5nc6cc[nH]c(=O)c6cc5-c5ccccc5)cc4)CC3)c2c1", "note": "[Borussertib] (10 µM)", "number of time points": 0},
      {"smiles": "O=C1C=CC[C@@H]2[C@H]3CCCN4CCC[C@@H](CN12)[C@@H]34", "note": "[Sophocarpine] (10 µM)", "number of time points": 0},
      {"smiles": "C=CC(=O)N[C@H]1C=C(C)c2c(-c3cnc4ccccc4c3)c3c(N)ncnc3n2C1", "note": "(10 µM)", "number of time points": 0},
      {"smiles": "Cn1cc(C2=C(c3cn(C4CCN(Cc5ccccn5)CC4)c4ccccc34)C(=O)NC2=O)c2ccccc21", "note": "[Enzastaurin] (10 µM)", "number of time points": 0},
      {"smiles": "CCN1CCN(C(=O)Cc2ccc(Nc3ncc(F)c(Nc4ccc(C(=O)Nc5ccccc5Cl)cc4)n3)cc2)CC1", "note": "(2.5 µM)", "number of time points": 0},
      {"smiles": "C[C@H]1CC[C@]2(NC1)O[C@H]1C[C@H]3[C@@H]4CC[C@H]5C[C@@H](O)CC[C@]5(C)[C@H]4CC[C@]3(C)[C@H]1[C@@H]2C", "note": "[Tomatidine (hydrochloride)] (10 µM)", "number of time points": 0},
      {"smiles": "O=[N+]([O-])/C=C/c1ccc2c(c1)OCO2", "note": "(2.5 µM)", "number of time points": 0},
      {"smiles": "NCCc1cn(S(=O)(=O)c2c(Cl)nc3sccn23)c2ccccc12", "note": "(10 µM)", "number of time points": 0},
      {"smiles": "COc1ccc(N(C(=O)Oc2c(C)cccc2C)c2ccnc(Nc3ccc(N4CCN(C)CC4)cc3)n2)c(OC)c1", "note": "(2.5 µM)", "number of time points": 0},
      {"smiles": "Cc1ccccc1-n1c(Cn2cnc3c(N)ncnc32)nc2cccc(C)c2c1=O", "note": "(10 µM)", "number of time points": 0},
      {"smiles": "Cc1[nH]ncc1-c1cc2nc([C@H]3CC4CCN3CC4)[nH]c(=O)c2s1", "note": "[(R)-Simurosertib] (10 µM)", "number of time points": 0},
      {"smiles": "CC1C(=O)OC2C(O)C34C5OC(=O)C3(OC3OC(=O)C(O)C34C(C(C)(C)C)C5O)C12O", "note": "(centres undefined) [Ginkgolide C] (10 µM)", "number of time points": 0},
      {"smiles": "O=C(/C=C/c1ccccc1)OC[C@H]1O[C@@H](O[C@@H]2OC=C[C@H]3[C@H](O)[C@@H]4O[C@]4(CO)[C@@H]23)[C@H](O)[C@@H](O)[C@@H]1O", "note": "[Picroside I] (10 µM)", "number of time points": 0},
      {"smiles": "CC1=C[C@]23C(=O)[C@@H](C=C(CO)[C@@H](O)[C@]2(O)[C@H]1O)[C@H]1[C@@H](C[C@H]3C)C1(C)C", "note": "[Ingenol] (10 µM)", "number of time points": 0},
      {"smiles": "O=Cc1cn(Cc2ccc(Cl)cc2)c2ccccc12", "note": "[Oncrasin-1] (10 µM)", "number of time points": 0},
      {"smiles": "C[C@@H]1CC[C@H]2[C@@H](C)C(=O)O[C@@H]3O[C@@]4(C)CC[C@@H]1[C@]32OO4", "note": "[Artemisinin] (10 µM)", "number of time points": 0},
      {"smiles": "C[C@H](Nc1ncnc2[nH]cnc12)c1nc2ccc(F)cc2c(=O)n1-c1ccccc1", "note": "[Acalisib] (10 µM)", "number of time points": 0},
      {"smiles": "O=C1c2ccccc2C(=O)c2c1cccc2-c1cnn(C2CCNCC2)c1", "note": "[PDK4-IN-1 (hydrochloride)] (10 µM)", "number of time points": 0},
      {"smiles": "Cc1ccccc1-n1c(Cn2ncc3c(N)ncnc32)nc2cccc(C)c2c1=O", "note": "(10 µM)", "number of time points": 0},
      {"smiles": "Nc1ncnc2c1ncn2[C@@H]1O[C@@H]2COP(O)(=S)O[C@H]2[C@H]1O", "note": "(some centres undefined) [Sp-cAMPS (sodium salt)] (10 µM)", "number of time points": 0},
      {"smiles": "CN(C)C(=O)c1ccc(Cn2c(C(=O)O)cc3c(Br)cc(Sc4ccc(Cl)c(Cl)c4)cc32)cc1", "note": "[Rheb inhibitor NR1] (10 µM)", "number of time points": 0},
      {"smiles": "C/C=C(/C)C(=O)O[C@H]1[C@@H]2[C@H](C)C(=O)O[C@@H]2C[C@@H](C)[C@@H]2C=CC(=O)[C@]21C", "note": "[Brevilin A] (2.5 µM)", "number of time points": 0}
    ]}
  ]
}
